Some of these results come from one statement about several compounds together.
Target: T1, human neutrophil elastase (HNE) (Homo sapiens, UniProt P08246)
T1 construct: purchased Sigma E8140
T1 sequence (P08246 30-247 limits assumed): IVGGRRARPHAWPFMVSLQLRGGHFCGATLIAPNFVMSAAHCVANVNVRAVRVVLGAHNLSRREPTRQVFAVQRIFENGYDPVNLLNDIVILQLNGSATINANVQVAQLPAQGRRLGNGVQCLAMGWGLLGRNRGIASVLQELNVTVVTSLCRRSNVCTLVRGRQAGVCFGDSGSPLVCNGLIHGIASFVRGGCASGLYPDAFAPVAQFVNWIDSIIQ
Assay: human neutrophil elastase (HNE) enzyme activity assay
Assay type: biochemical
Conditions: human leukocyte elastase 0.00072 U/mL, substrate MeOSuc-Ala-Ala-Pro-Val-AMC 100 μM, 25° C., 30 minutes, fluorescence; read-out: HNE inhibition

IC50, < 20 nM:
COC(=O)C1=C(C)N(c2cccc(C(F)(F)F)c2)c2n[nH]c(=O)n2[C@@H]1c1ccc(C#N)cc1CC[n+]1ccccc1C [Example 3, 1-(2-{5-Cyano-2-[(R)-6-methoxycarbonyl-7-methyl-3-oxo-8-(3-trifluoromethyl-phenyl)-2,3,5,8-tetrahydro-[1,2,4]triazolo[4,3-a]pyrimidin-5-yl]-phenyl}-ethyl)-2-methyl-pyridinium bromide]
COC(=O)C1=C(C)N(c2cccc(C(F)(F)F)c2)c2n[nH]c(=O)n2[C@@H]1c1ccc(C#N)cc1CC[n+]1ccc(C)cc1C [Example 7, 1-(2-{5-Cyano-2-[(R)-6-methoxycarbonyl-7-methyl-3-oxo-8-(3-trifluoromethyl-phenyl)-2,3,5,8-tetrahydro-[1,2,4]triazolo[4,3-a]pyrimidin-5-yl]-phenyl}-ethyl)-2,4-dimethyl-pyridinium bromide]
COC(=O)C1=C(C)N(c2cccc(C(F)(F)F)c2)c2n[nH]c(=O)n2[C@@H]1c1ccc(C#N)cc1CC[n+]1ccc(CO)cc1 [Example 4, 1-(2-{5-Cyano-2-[(R)-6-methoxycarbonyl-7-methyl-3-oxo-8-(3-trifluoromethyl-phenyl)-2,3,5,8-tetrahydro-[1,2,4]triazolo[4,3-a]pyrimidin-5-yl]-phenyl}-ethyl)-4-hydroxymethyl-pyridinium bromide]
COC(=O)C1=C(C)N(c2cccc(C(F)(F)F)c2)c2n[nH]c(=O)n2[C@@H]1c1ccc(C#N)cc1CC[n+]1ccccc1CCO [Example 10, 1-(2-{5-Cyano-2-[(R)-6-methoxycarbonyl-7-methyl-3-oxo-8-(3-trifluoromethyl-phenyl)-2,3,5,8-tetrahydro-[1,2,4]triazolo[4,3-a]pyrimidin-5-yl]-phenyl}-ethyl)-2-(2-hydroxy-ethyl)-pyridinium bromide]
CCc1cc[n+](CCc2cc(C#N)ccc2[C@@H]2C(C(=O)OC)=C(C)N(c3cccc(C(F)(F)F)c3)c3n[nH]c(=O)n32)cc1 [Example 11, 1-(2-{5-Cyano-2-[(R)-6-methoxycarbonyl-7-methyl-3-oxo-8-(3-trifluoromethyl-phenyl)-2,3,5,8-tetrahydro-[1,2,4]triazolo[4,3-a]pyrimidin-5-yl]-phenyl}-ethyl)-4-ethyl-pyridinium bromide]
COC(=O)C1=C(C)N(c2cccc(C(F)(F)F)c2)c2n[nH]c(=O)n2[C@@H]1c1ccc(C#N)cc1CC[n+]1ccc(OC)cc1 [Example 1, 1-(2-{5-Cyano-2-[(R)-6-methoxycarbonyl-7-methyl-3-oxo-8-(3-trifluoromethyl-phenyl)-2,3,5,8-tetrahydro-[1,2,4]triazolo[4,3a]pyrimidin-5-yl]-phenyl}-ethyl)-4-methoxy-pyridinium bromide]
COC(=O)C1=C(C)N(c2cccc(C(F)(F)F)c2)c2n[nH]c(=O)n2[C@@H]1c1ccc(C#N)cc1CC[n+]1cc(O)ccc1C [Example 6, 1-(2-{5-Cyano-2-[(R)-6-methoxycarbonyl-7-methyl-3-oxo-8-(3-trifluoromethyl-phenyl)-2,3,5,8-tetrahydro-[1,2,4]triazolo[4,3-a]pyrimidin-5-yl]-phenyl}-ethyl)-5-hydroxy-2-methyl-pyridinium bromide]
COC(=O)C1=C(C)N(c2cccc(C(F)(F)F)c2)c2n[nH]c(=O)n2[C@@H]1c1ccc(C#N)cc1CC[n+]1cccc(O)c1 [Example 2, 1-(2-{5-Cyano-2-[(R)-6-methoxycarbonyl-7-methyl-3-oxo-8-(3-trifluoromethyl-phenyl)-2,3,5,8-tetrahydro-[1,2,4]triazolo[4,3-a]pyrimidin-5-yl]-phenyl}-ethyl)-3-hydroxy-pyridinium bromide]
COC(=O)C1=C(C)N(c2cccc(C(F)(F)F)c2)c2n[nH]c(=O)n2[C@@H]1c1ccc(C#N)cc1CC[n+]1cc(C)cc(C)c1 [Example 8, 1-(2-{5-Cyano-2-[(R)-6-methoxycarbonyl-7-methyl-3-oxo-8-(3-trifluoromethyl-phenyl)-2,3,5,8-tetrahydro-[1,2,4]triazolo[4,3-a]pyrimidin-5-yl]-phenyl}-ethyl)-3,5-dimethyl-pyridinium bromide]
CCc1cccc[n+]1CCc1cc(C#N)ccc1[C@@H]1C(C(=O)OC)=C(C)N(c2cccc(C(F)(F)F)c2)c2n[nH]c(=O)n21 [Example 9, 1-(2-{5-Cyano-2-[(R)-6-methoxycarbonyl-7-methyl-3-oxo-8-(3-trifluoromethyl-phenyl)-2,3,5,8-tetrahydro-[1,2,4]triazolo[4,3-a]pyrimidin-5-yl]-phenyl}-ethyl)-2-ethyl-pyridinium bromide]
COC(=O)C1=C(C)N(c2cccc(C(F)(F)F)c2)c2n[nH]c(=O)n2[C@@H]1c1ccc(C#N)cc1CC[n+]1ccc(C(C)C)cc1 [Example 5, 1-(2-{5-Cyano-2-[(R)-6-methoxycarbonyl-7-methyl-3-oxo-8-(3-trifluoromethyl-phenyl)-2,3,5,8-tetrahydro-[1,2,4]triazolo[4,3-a]pyrimidin-5-yl]-phenyl}-ethyl)-4-isopropyl-pyridinium bromide]
